Results are given in words; binding and its absence hold for the method and conditions named. In cells and extracts the contact can be indirect. Some entries that bind do so weakly or less than the wild type. Sequences can lack the tags named with a protein.
What was measured:
[1] = biological target: T1, endogenous IKKα (human (endogenous in HCT116)) (UniProt O15111); assay: co-IP; HCT116 cells transfected with FLAG-CT55 only, treated with TNF-α (20 ng/ml) for 6 h; immunoprecipitation of endogenous IKKα and IKKβ (blot for CT55) or of FLAG-CT55 (blot for IKKα and IKKβ); protein G-agarose, 4 h at 4 °C
T1 sequence: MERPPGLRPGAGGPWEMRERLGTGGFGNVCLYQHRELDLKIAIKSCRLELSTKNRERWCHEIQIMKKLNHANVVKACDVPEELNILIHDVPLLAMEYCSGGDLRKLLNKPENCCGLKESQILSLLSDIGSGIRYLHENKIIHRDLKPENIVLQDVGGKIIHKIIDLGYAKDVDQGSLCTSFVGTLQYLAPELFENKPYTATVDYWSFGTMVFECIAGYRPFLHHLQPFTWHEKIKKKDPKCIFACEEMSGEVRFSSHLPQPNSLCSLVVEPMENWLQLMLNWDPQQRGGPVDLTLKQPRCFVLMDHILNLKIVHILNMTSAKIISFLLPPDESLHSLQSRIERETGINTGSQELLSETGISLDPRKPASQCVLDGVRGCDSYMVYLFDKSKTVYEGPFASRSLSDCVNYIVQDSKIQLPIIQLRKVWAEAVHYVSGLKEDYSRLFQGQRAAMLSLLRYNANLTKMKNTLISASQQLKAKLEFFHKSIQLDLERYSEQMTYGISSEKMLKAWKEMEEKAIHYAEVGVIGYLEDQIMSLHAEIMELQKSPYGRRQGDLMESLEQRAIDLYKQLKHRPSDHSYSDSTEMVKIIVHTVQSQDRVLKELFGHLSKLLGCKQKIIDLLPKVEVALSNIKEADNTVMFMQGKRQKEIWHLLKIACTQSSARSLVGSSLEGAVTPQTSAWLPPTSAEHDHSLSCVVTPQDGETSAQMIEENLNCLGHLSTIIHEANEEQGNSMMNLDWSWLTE

[2] = biological target: T2, endogenous IKKβ (human (endogenous in HCT116)) (UniProt O14920); assay: as above
T2 sequence: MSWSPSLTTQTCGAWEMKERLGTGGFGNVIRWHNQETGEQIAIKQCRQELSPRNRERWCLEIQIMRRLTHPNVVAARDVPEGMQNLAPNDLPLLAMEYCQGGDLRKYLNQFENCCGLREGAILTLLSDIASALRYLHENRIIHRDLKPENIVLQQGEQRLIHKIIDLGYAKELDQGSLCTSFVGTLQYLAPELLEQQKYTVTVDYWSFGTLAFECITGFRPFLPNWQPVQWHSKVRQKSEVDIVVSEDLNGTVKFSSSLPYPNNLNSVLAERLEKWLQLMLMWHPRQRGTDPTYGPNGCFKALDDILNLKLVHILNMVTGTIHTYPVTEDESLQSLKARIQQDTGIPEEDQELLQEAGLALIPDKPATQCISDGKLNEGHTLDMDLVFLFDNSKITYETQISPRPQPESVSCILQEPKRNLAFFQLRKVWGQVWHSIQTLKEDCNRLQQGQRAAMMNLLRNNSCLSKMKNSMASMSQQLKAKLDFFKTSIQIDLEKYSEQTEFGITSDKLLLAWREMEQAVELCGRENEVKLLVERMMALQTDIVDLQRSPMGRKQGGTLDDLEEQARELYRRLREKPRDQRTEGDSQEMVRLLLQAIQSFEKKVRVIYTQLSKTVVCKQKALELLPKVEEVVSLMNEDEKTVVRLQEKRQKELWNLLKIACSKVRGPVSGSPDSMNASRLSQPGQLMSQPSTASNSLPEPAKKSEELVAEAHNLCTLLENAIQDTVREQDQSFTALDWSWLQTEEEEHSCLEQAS

[3] = biological target: T3, HA-tagged IKKβ (UniProt O14920); assay: co-IP; HCT116 cells cotransfected with FLAG-CT55 and HA-IKKα and IKKβ for 24 h, treated with TNF-α (20 ng/ml) for 6 h; lysates (20 mM Tris-HCl pH 7.4, 150 mM NaCl, 1 mM EDTA) immunoprecipitated with anti-Flag or anti-HA antibody and protein G-agarose, 4 h at 4 °C; western blot
T3 sequence: T2 sequence

[4] = biological target: T4, HA-tagged IKKα (UniProt O15111); assay: as above
T4 sequence: T1 sequence

Measured: binding

B1: FLAG-tagged CT55 (cancer testis antigen 55) (protein, UniProt Q8WUE5 1-264)
chain: MLRLLRLALAFYGRTADPAERQGPQQQGLPQGDTQLTTVQGVVTSFCGDYGMIDESIYFSSDVVTGNVPLKVGQKVNVVVEEDKPHYGLRAIKVDVVPRHLYGAGPSDSGTRVLIGCVTSINEDNIYISNSIYFSIAIVSEDFVPYKGDLLEVEYSTEPGISNIKATSVKPIRCIHTEEVCITSVHGRNGVIDYTIFFTLDSVKLPDGYVPQVDDIVNVVMVESIQFCFIWRAISITPVHKSSSGFQDDGGLGRPKRERRSQSI
binds: all assays above

— PMC6447546
